The target of one assay is HA-SNAP-mGluR2 (rat) (UniProt P31421). In words: two-colour single-molecule pulldown (SiMPull); HA-SNAP construct (BG-LD655) and CLIP construct (BC-DY547) co-expressed in HEK 293T cells; complexes from lysate captured by anti-HA antibody; DY547 spots counted against LD655 spots, background of CLIP construct alone subtracted.
Assay [1] deals with HA-SNAP-mGluR2-C121A (rat) (UniProt P31421). The description is as above.
The target of assay [2] is HA-SNAP-mGluR3-C127A (rat) (UniProt P31422). The description is as above.
In assay [3] the target is HA-SNAP-mGluR2-C121A (rat) (UniProt P31421). In words: single-molecule pulldown (SiMPull) with photobleaching step counting; HEK 293T cells surface-labelled with BG-LD555, lysed in 1.2% IGEPAL, diluted in 0.1% IGEPAL buffer; HA-SNAP constructs captured by biotinylated anti-HA antibody on NeutrAvidin/PEG slides; TIRF; percent dimerization = two-step bleaching min-max normalised (5% background, 55% for full-length mGluR2); in some experiments saturating ligands (TASP, MNI 137, glutamate, LY34) kept from cell dissociation on.

Amino acid sequences for entries named in this document (tags omitted). A change or cut given only in a name is not applied to a line headed by its entry. Chains listed by the source or under a name are the forms on record and can include a tag or linker. Residues count along the entry.
HA-SNAP-mGluR2 (P31421, residues 19-872): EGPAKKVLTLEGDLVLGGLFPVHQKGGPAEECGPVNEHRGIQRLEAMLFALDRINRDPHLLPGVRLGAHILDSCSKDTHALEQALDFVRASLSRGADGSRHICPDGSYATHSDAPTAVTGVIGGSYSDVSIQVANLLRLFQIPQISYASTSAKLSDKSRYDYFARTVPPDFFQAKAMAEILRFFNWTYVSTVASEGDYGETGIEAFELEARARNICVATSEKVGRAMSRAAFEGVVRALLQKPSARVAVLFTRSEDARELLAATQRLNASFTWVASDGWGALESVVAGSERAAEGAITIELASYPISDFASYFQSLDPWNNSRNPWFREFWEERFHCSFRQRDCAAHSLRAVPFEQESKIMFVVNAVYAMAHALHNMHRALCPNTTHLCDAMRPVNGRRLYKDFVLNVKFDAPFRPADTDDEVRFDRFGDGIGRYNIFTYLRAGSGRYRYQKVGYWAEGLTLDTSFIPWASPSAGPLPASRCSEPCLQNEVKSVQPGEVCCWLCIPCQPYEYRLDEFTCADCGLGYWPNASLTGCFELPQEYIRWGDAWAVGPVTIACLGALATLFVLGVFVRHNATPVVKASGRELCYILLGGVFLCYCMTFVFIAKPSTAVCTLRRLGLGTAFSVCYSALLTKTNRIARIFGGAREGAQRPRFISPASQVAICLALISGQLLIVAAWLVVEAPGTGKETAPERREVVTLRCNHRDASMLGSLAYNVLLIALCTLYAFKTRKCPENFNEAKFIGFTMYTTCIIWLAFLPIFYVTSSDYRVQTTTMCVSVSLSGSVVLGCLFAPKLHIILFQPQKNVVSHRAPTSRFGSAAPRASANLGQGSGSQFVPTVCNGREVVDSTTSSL
HA-SNAP-mGluR2-C121A (P31421, form named): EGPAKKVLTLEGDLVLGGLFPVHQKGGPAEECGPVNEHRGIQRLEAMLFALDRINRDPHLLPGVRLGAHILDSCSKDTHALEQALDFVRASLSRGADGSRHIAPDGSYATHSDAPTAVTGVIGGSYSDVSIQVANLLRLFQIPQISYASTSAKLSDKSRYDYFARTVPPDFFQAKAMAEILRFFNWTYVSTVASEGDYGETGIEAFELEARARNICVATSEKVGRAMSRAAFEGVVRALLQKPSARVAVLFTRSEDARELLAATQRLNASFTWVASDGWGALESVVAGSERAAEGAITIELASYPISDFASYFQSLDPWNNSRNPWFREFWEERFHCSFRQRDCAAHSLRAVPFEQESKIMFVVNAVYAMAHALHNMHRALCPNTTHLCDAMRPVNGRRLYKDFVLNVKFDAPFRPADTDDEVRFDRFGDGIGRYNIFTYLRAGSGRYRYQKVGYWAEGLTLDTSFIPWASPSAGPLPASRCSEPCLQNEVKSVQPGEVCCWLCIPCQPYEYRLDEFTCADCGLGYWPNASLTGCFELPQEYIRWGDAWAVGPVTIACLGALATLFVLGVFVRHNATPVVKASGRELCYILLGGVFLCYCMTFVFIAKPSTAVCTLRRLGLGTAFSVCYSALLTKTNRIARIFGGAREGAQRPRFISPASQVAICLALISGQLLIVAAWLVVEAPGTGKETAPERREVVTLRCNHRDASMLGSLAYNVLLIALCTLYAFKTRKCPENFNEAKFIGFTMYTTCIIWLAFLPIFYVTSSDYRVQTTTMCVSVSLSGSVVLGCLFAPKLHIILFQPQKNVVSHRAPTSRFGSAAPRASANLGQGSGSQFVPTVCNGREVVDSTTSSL
CLIP-mGluR3 (P31422, residues 23-879): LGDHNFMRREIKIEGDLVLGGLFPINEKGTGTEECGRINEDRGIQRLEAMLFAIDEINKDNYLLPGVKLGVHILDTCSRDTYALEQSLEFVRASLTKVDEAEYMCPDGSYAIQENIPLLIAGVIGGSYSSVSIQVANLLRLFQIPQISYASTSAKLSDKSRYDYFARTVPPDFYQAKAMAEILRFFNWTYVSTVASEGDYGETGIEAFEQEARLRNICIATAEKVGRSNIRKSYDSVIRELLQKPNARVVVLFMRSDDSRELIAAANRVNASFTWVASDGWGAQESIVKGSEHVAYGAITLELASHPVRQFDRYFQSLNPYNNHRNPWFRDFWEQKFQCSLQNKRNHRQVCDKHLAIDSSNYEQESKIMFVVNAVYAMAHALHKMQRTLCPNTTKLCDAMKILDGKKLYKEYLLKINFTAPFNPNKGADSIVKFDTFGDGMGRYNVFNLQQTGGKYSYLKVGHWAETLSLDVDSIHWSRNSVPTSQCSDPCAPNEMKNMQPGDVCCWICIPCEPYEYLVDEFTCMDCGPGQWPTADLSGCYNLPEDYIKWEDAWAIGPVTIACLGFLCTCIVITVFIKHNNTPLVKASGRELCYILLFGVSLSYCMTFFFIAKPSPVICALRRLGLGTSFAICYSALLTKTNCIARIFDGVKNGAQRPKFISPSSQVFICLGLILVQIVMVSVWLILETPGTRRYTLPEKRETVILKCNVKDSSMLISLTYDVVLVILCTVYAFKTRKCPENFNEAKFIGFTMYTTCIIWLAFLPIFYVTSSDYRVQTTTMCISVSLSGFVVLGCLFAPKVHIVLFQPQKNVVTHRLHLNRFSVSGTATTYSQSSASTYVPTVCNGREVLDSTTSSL
HA-SNAP-mGluR3-C127A (P31422, form named): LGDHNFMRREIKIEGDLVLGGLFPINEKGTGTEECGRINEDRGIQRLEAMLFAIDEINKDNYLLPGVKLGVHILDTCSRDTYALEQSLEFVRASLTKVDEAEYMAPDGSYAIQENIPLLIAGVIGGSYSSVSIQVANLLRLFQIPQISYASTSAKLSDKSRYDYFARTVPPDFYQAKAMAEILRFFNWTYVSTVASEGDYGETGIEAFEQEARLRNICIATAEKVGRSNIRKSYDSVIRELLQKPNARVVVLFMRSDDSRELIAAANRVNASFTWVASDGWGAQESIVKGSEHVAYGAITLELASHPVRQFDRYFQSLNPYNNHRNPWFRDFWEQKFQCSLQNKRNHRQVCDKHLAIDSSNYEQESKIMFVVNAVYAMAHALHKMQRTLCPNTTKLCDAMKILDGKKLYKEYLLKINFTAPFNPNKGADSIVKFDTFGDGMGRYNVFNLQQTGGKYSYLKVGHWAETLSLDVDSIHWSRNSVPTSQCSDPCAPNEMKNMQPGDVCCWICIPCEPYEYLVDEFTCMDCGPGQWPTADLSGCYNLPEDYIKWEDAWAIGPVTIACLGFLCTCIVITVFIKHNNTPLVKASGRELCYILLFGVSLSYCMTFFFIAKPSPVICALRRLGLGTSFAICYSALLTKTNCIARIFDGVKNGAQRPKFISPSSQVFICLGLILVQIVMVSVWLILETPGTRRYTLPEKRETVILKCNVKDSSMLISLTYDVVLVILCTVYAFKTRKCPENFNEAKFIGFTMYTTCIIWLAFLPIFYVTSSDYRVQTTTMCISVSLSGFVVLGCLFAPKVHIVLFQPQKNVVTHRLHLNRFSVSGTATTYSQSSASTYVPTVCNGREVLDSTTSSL
CLIP-mGluR3-C127A-3xTM4 (P31422, form named): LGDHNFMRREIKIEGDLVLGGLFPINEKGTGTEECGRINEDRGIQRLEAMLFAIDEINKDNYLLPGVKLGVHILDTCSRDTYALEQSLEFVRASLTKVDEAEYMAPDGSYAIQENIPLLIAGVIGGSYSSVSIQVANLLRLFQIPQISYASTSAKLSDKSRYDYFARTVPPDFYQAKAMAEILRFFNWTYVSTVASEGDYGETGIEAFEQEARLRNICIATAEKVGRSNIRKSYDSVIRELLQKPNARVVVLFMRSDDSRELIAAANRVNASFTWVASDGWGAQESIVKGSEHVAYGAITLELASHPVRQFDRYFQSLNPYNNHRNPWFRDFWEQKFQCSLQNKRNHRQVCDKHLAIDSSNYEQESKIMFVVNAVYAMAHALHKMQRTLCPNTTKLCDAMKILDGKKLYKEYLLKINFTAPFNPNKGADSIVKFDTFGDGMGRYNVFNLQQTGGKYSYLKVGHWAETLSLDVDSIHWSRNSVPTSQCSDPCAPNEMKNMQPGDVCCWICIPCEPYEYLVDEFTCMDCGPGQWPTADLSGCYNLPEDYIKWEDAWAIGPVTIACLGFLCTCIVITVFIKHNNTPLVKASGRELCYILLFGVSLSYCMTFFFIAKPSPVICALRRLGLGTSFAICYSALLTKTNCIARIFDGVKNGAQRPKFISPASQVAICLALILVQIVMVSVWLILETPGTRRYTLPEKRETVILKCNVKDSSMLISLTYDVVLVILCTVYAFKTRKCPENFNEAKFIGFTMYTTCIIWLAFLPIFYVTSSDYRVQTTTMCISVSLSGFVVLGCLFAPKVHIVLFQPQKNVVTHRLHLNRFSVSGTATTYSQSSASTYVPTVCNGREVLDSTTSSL
SNAP-mGluR3-3xTM4 (P31422, form named): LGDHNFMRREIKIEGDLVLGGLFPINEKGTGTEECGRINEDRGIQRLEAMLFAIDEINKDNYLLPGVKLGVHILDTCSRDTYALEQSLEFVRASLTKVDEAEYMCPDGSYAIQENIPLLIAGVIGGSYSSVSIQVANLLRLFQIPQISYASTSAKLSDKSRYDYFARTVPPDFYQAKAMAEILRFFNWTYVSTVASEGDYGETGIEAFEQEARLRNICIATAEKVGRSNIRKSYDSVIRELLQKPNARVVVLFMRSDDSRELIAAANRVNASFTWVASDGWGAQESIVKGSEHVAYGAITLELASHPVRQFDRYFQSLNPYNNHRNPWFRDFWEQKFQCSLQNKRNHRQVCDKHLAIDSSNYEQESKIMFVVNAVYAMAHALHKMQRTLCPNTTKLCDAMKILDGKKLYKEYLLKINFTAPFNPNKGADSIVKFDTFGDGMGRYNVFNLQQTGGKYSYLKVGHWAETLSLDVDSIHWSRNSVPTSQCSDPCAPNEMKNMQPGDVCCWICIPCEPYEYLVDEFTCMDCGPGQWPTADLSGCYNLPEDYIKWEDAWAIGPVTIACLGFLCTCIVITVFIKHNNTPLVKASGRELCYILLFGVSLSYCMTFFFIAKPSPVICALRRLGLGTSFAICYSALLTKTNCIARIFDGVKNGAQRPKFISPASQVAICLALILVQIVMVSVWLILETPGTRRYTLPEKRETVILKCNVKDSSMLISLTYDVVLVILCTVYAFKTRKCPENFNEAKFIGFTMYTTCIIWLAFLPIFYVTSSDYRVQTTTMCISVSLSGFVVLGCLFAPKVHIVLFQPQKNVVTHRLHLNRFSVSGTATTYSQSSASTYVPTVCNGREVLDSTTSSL
SNAP-mGluR3-C127A-I788A (P31422, form named): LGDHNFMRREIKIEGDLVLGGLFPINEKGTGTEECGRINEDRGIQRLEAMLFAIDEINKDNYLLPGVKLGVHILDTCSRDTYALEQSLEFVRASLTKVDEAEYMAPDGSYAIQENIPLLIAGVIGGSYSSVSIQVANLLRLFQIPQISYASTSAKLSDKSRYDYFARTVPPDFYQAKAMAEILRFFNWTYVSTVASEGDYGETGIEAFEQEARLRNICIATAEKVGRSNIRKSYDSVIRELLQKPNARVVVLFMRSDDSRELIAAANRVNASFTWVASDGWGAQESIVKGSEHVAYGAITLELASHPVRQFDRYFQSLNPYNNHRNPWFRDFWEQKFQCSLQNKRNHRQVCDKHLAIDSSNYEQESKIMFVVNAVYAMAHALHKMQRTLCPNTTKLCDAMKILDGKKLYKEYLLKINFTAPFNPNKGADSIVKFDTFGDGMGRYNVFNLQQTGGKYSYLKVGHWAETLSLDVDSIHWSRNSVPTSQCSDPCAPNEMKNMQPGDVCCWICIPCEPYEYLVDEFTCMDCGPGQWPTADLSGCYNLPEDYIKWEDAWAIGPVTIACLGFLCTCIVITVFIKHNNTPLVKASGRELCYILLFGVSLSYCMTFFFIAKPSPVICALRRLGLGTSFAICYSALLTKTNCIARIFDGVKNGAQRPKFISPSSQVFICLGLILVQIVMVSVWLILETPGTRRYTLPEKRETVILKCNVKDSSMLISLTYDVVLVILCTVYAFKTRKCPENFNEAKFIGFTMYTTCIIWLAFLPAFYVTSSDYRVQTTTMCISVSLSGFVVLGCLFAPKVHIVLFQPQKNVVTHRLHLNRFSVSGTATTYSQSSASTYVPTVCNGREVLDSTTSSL

Assay [4] deals with SNAP-mGluR2-C121A-3xTM4 (rat) (UniProt P31421). The description is as above.
In assay [5] the target is SNAP-mGluR2-C121A-I779A (rat) (UniProt P31421). The assay is described as above.
In the next assay the target is SNAP-mGluR3-3xTM4 (rat) (UniProt P31422). The assay is described as above.
Assay [6] has as its target SNAP-mGluR3-C127A-I788A (rat) (UniProt P31422). Described as above.

No constants are given. Whether binding was seen depends on the method and setting. Some results given as binding are weak or reduced against the parent protein; the word gives no strength.

In the case of “CLIP-mGluR2 (from UniProt P31421 19-872) (receptor)”, in the assay with HA-SNAP-mGluR2 (rat), the binding result is recorded as “binds”. On to “CLIP-mGluR2-C121A (from UniProt P31421 19-872) (receptor)”, for which the binding result in assay [1] and in assay [2] was “binds” in each case. As to “CLIP-mGluR2-C121A-3xTM4 (from UniProt P31421 19-872) (receptor)”, the binding result in assay [2] is recorded as “binds”.

For the substance “CLIP-mGluR3 (from UniProt P31422 23-879) (receptor)”, the binding entry with HA-SNAP-mGluR2 (rat) is on record as “binds”. As to “CLIP-mGluR3-C127A (from UniProt P31422 23-879) (receptor)”, the binding result in assay [1] and in assay [2] was “binds” in each case. For the substance “CLIP-mGluR3-C127A-3xTM4 (from UniProt P31422 23-879) (receptor)”, in assay [1], the binding result is “binds”. In the case of “HA-SNAP-mGluR2-C121A (from UniProt P31421 19-872) (receptor)”, in assay [3], the binding result is recorded as “binds”. On to “SNAP-mGluR2-C121A-3xTM4 (from UniProt P31421 19-872) (receptor)”, for which the binding entry in assay [4] is on record as “binds”.

Consider “SNAP-mGluR2-C121A-I779A (from UniProt P31421 19-872) (receptor)”, for which, in assay [5], the binding entry is reported as “binds”. As for “SNAP-mGluR3-3xTM4 (from UniProt P31422 23-879) (receptor)”, the binding result with SNAP-mGluR3-3xTM4 (rat) is recorded as “binds”. Turning to “SNAP-mGluR3-C127A-I788A (from UniProt P31422 23-879) (receptor)”, in assay [6], the binding entry was “binds”.

These data come from article PMC8102066, “Differences in interactions between transmembrane domains tune the activation of metabotropic glutamate receptors” (eLife, 2021).
